Results on 22 substances are retold here after patent US20210130401A1 (THE REGENTS OF THE UNIVERSITY OF MICHIGAN, priority 2017, published 2021).

A value given as a limit tells only on which side of the number the result lay.

The data set in a line: general procedure: hybrid (solid and solution phase) peptide synthesis; 2-chlorotrityl chloride resin (ChemPep, 1 mmol/g); EDCl, HOAt, DIPEA (solution couplings). Conditions: for final purity (method not given): Waters ACQUITY UPLC, reverse-phase SunFire C18 5 um 4.6x150 mm, 0.1% TFA water/CH3CN; for cyclisation yield: cyclisation step.
[1] abbreviates: late stage modification step, TFA salt.
The mark [2] stands for this setting: whole synthesis, over 4 steps from resin 24, scale of the general procedure 0.1 mmol, TFA salt.
[3] abbreviates: whole synthesis, over 4 steps, scale of the general procedure 0.1 mmol, CF3COOH salt.
Setting [4] is: whole synthesis, scale of the general procedure 0.1 mmol, TFA salt.
Where [5] appears, read: whole synthesis, over 4 steps, scale of the general procedure 0.1 mmol, TFA salt.

As for “N-((3R,6S,12R)-6-ethyl-12-methyl-2,5,8,11-tetraoxo-3-phenyl-9-(3-(pyrimidin-2-ylamino)propyl)-1,4,7,10-tetraazacyclotetradecan-12-yl)isobutyramide”, under setting [1], the step yield turned out to be 69% and the “final purity (method not given)” value is above 98%. “N-((3R,6S,9S,12R)-6-ethyl-9-(3-guanidinopropyl)-2,5,8,11-tetraoxo-3-phenyl-1,4,7,10-tetraazacyclotetradecan-12-yl)isobutyramide”: under setting [2], the isolated yield came out at 21.7% yield over 4 steps. As for “N-((3R,6S,9S,12R)-6-ethyl-12-methyl-3-(naphthalen-2-yl)-2,5,8,11-tetraoxo-9-(3-((1,4,5,6-tetrahydropyrimidin-2-yl)amino)propyl)-1,4,7,10-tetraazacyclotetradecan-12-yl)isobutyramide”, under setting [1], the step yield was 68% and the “final purity (method not given)” value is reported as above 98%. As to “N-((3R,6S,9S,12R)-6-ethyl-9-(3-guanidinopropyl)-2,5,8,11-tetraoxo-3-phenyl-1,4,7,10-tetraazacyclotridecan-12-yl)isobutyramide”, the isolated yield under setting [2] came to 24.5% yield over 4 steps. Regarding “N-((3R,6S,9S,12R)-3-cyclohexyl-6-ethyl-9-(3-guanidinopropyl)-12-methyl-2,5,8,11-tetraoxo-1,4,7,10-tetraazacyclotetradecan-12-yl)isobutyramide”, the isolated yield under setting [3] is on record as 51%. Consider “N-((3R,6S,9S,12R)-3-(cyclohexylmethyl)-6-ethyl-9-(3-(hydrazinecarboximidamido)propyl)-12-methyl-2,5,8,11-tetraoxo-1,4,7,10-tetraazacyclotetradecan-12-yl)isobutyramide”, for which, under setting [1], the step yield came to 89% and the “final purity (method not given)” value is above 98%. In the case of “N-((3R,6S,9S,12R)-6-ethyl-9-(3-guanidinopropyl)-3-isobutyl-12-methyl-2,5,8,11-tetraoxo-1,4,7,10-tetraazacyclotetradecan-12-yl)isobutyramide”, the isolated yield under setting [3] is 35%. Take “N-((3R,6S,9S,12R)-6-ethyl-9-(3-guanidinopropyl)-3,12-dimethyl-2,5,8,11-tetraoxo-1,4,7,10-tetraazacyclotetradecan-12-yl)isobutyramide”: the isolated yield under setting [3] worked out at 38%. For “(9H-fluoren-9-yl)methyl ((6R,9S,12S,15R)-9-ethyl-6-(4-fluorophenyl)-4,15-dimethyl-5,8,11,14-tetraoxo-12-(3-(3-((2,2,4,6,7-pentamethyl-2,3-dihydrobenzofuran-5-yl)sulfonyl)guanidino)propyl)-4,7,10,13-tetraazaoctadeca-1,17-dien-15-yl)carbamate”, the step yield (coupling step, TFA salt) is 45% yield. “N-((3R,6S,9S,12R)-3-(cyclohexylmethyl)-9-(3-((5,5-dimethyl-1,4,5,6-tetrahydropyrimidin-2-yl)amino)propyl)-6-ethyl-12-methyl-2,5,8,11-tetraoxo-1,4,7,10-tetraazacyclotetradecan-12-yl)isobutyramide”: under setting [1], the step yield was determined as 93% and the “final purity (method not given)” value is on record as above 98%. Consider “N-((3R,6S,9S,12R)-6-ethyl-9-(3-guanidinopropyl)-3-(2-methoxyphenyl)-12-methyl-2,5,8,11-tetraoxo-1,4,7,10-tetraazacyclotetradecan-12-yl)isobutyramide”, for which the isolated yield under setting [3] was determined as 25%.

In the case of “N-((3R,6S,9S,12R)-9-(2-((1H-imidazol-2-yl)amino)ethyl)-6-ethyl-12-methyl-2,5,8,11-tetraoxo-3-phenyl-1,4,7,10-tetraazacyclotetradecan-12-yl)isobutyramide”, under setting [1], the step yield is 10% yield and the “final purity (method not given)” value was above 98% purity. Regarding “N-((3R,6S,9S,12R)-3-(cyclohexylmethyl)-6-ethyl-9-(3-(3-ethylguanidino)propyl)-12-methyl-2,5,8,11-tetraoxo-1,4,7,10-tetraazacyclotetradecan-12-yl)isobutyramide”, under setting [1], the step yield stood at 92% and the “final purity (method not given)” value was above 98%. With “N-((3R,6S,9S,12R)-6-ethyl-9-(3-guanidinopropyl)-3-(4-methoxyphenyl)-12-methyl-2,5,8,11-tetraoxo-1,4,7,10-tetraazacyclotetradecan-12-yl)isobutyramide”, the isolated mass (whole synthesis, TFA salt) is 6.0 mg. The “final purity (method not given)” value under setting [4] is above 98%. Further, under setting [5], the isolated yield was 10%. In the case of “N-((8S,11R,16R)-8-(3-guanidinopropyl)-11-methyl-7,10,15,18-tetraoxo-16-phenyl-6,9,14,17-tetraazaspiro[4.13]octadecan-11-yl)isobutyramide”, the isolated mass (whole synthesis, TFA salt) was determined as 4.2 mg. The “final purity (method not given)” value under setting [4] is reported as above 98%. Also, the isolated yield under setting [5] is recorded as 7%. As for “N-((3R,6S,9S,12R)-6-ethyl-9-(3-guanidinopropyl)-3,12-dimethyl-2,5,8,11-tetraoxo-3-phenyl-1,4,7,10-tetraazacyclotetradecan-12-yl)isobutyramide”, the isolated mass (whole synthesis, TFA salt) was determined as 2.5 mg. In addition, the “final purity (method not given)” value under setting [4] was above 98%. In addition, the isolated yield under setting [5] is 5%. As to “N-(4-((2S,5S,8R,13R)-5-ethyl-13-isobutyramido-13-methyl-3,6,9,14-tetraoxo-8-phenyl-1,4,7,10-tetraazacyclotetradecan-2-yl)butyl)acrylamide”, under setting [1], the step yield was 51% and the “final purity (method not given)” value was above 98%. In the same order, the values of “N-((3R,6S,9S,12R)-9-(3-((4,5-dihydro-1H-imidazol-2-yl)amino)propyl)-6-ethyl-12-methyl-2,5,8,11-tetraoxo-3-phenyl-1,4,7,10-tetraazacyclotetradecan-12-yl)isobutyramide” are 53% yield and above 98% purity. For the substance “N-((3R,6S,9S,12R)-6-ethyl-3-(4-fluorophenyl)-9-(3-guanidinopropyl)-1,12-dimethyl-2,5,8,11-tetraoxo-1,4,7,10-tetraazacyclohexadecan-12-yl)isobutyramide”, the cyclisation yield (over 3 steps from 36f, TFA salt) is 11% yield over 3 steps. Take “(R)—N-((6S,9S,12R)-9-ethyl-1-imino-14-methyl-7,10,13-trioxo-1-(2,2,4,6,7-pentamethyl-2,3-dihydrobenzofuran-5-sulfonamido)-12-phenyl-2,8,11,14-tetraazaheptadec-16-en-6-yl)-2-isobutyramido-2-methylpent-4-enamide”: the step yield (coupling step, TFA salt) turned out to be 45% yield. As to “(9H-fluoren-9-yl)methyl ((6R,9S,12S,15R)-9-ethyl-15-methyl-12-(3-((E)-2-methyl-3-((2,2,4,6,7-pentamethyl-2,3-dihydrobenzofuran-5-yl)sulfonyl)guanidino)propyl)-5,8,11,14-tetraoxo-6-phenyl-4,7,10,13-tetraazaoctadeca-1,17-dien-15-yl)carbamate”, the step yield (coupling step, TFA salt) is on record as 85% yield. For the substance “N-((3R,6S,9S,12R)-3-(4-chlorophenyl)-6-ethyl-9-(3-guanidinopropyl)-1,12-dimethyl-2,5,8,11-tetraoxo-1,4,7,10-tetraazacyclohexadecan-12-yl)isobutyramide”, the cyclisation yield (over 3 steps from 36g, TFA salt) was determined as 11% yield over 3 steps.
